Measurements as given in PubChem BioAssay AID2685 (National Center for Advancing Translational Sciences (NCATS), 2010).
This is one part of the list. These are further read-outs of the screen, such as a control signal, another cell line or another target. No call is given for them. Most of these compounds were active or inconclusive in the main read-out, so they are no random draw. Words in brackets tell the shape of the fitted curve; partial curves, single points and poor fits give uncertain potencies.

Assay: qHTS Assay for Lipid Storage Modulators in Drosophila S3 Cells;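 as to cell number change: cells counted by Cell Tracker Red CMTPX staining in the red channel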
Conditions: BODIPY lipid droplet fluorescence, 18-24 h; for cell number change: measured here: cell count max response, cells fed with added oleic acid
Summary of the method: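 Laser-scanning cytometry quantifies lipid droplet accumulation (500–530 nm total intensity; droplet/cell object ratio) in oleic acid-fed (400 uM added) Drosophila S3 cells treated with a concentration series. 20 uM Triacsin C defined 100% inhibition.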

[1] = measured here: cell number channel AC50, cells fed with added oleic acid
[2] = measured here: lipid fluorescence (Fed channel) AC50, cells fed with added oleic acid

SMILES | cell number change [%] | AC50 [1] | AC50 [2]
COc1cc(NC(=O)C2CCCCN2)ccc1OCC(C)C (configuration not stated) | -39.9 | 0.058 µM [falling, full curve, poor fit] | 0.0651 µM [falling, full curve, poor fit]
O=C(Cn1ccc([N+](=O)[O-])n1)c1ccccc1 | 17.7 |  | 20.6 µM [rising, partial curve]
CCc1cccc(C)c1NC(=O)CCCSc1nc2ccccc2s1 | 14.4 |  | 16.4 µM [rising, single point]
CN1CCN(NC(=O)c2ccc(Cl)c(S(=O)(=O)Nc3ccc(Cl)cc3)c2)CC1 | -29 | 3.26 µM [falling, full curve, poor fit] | 2.59 µM [falling, full curve, poor fit]
CCN1C(=O)[C@H]2[C@@H](c3ccc(Cl)cc3)N3C(=O)CN(CC4CC4)C(=O)[C@@]3(C)[C@H]2C1=O |  |  | 29.1 µM [rising, single point]
O=C(Nc1nnc(SCc2ccc(F)cc2)s1)c1ccc2ncsc2c1 | 45.8 | 8.2 µM [rising, partial curve] | 10.3 µM [rising, partial curve]
CC(C)(C)c1ccc(-c2nnc(SCC(=O)O)n2N)cc1 | -6.33 | 0.517 µM [falling, single point] | 0.731 µM [falling, full curve, poor fit]
CCOc1ccc(N(CC(=O)NC2CCCC2)S(=O)(=O)c2c(C)[nH]c(=O)[nH]c2=O)cc1 | -26.7 | 0.0517 µM [falling, full curve, poor fit] | 0.259 µM [falling, full curve, poor fit]
COc1ccc(C(=O)Nc2ccc(OCC(F)(F)C(F)F)c(C(F)(F)F)c2)cc1OC | 18.8 | 0.00411 µM [rising, full curve, poor fit] | 
CCCC(=O)c1cc(F)c(N2CCN(CCC#N)CC2)cc1C | -17.1 |  | 5.8 µM [rising, partial curve]
Cc1cccc2sc(N(CCCN(C)C)C(=O)c3ccco3)nc12 | -15.8 |  | 0.82 µM [falling, single point]
COc1ccc(S(=O)(=O)NC(C)C(=O)NC2CC2)cc1C (configuration not stated) | -1.16 |  | 23.1 µM [rising, single point]
COC(=O)[C@@]1(Cc2ccc(F)cc2)[C@H]2c3cc(C(=O)N4CCCC4)n(CCc4ccc(O)c(O)c4)c3C[C@H]2CN1C(=O)c1ccccc1 | -32.8 | 29.1 µM [falling, single point] | 16.4 µM [falling, single point]
Cc1cc(C)cc(OCC(=O)Nc2ccc(N3CCCCC3)cc2)c1 | 36.5 | 13 µM [rising, single point] | 23.1 µM [rising, single point]
COc1ccc(C(=O)COC(=O)/C=C/c2ccc(S(=O)(=O)Nc3cccc(S(N)(=O)=O)c3)cc2)cc1 | -27.4 |  | 7.31 µM [falling, partial curve]
O=CN1Cc2[nH]c3ccccc3c2N(c2ccc(Cl)cc2)C1=O | -30.3 | 0.00411 µM [falling, full curve, poor fit] | 20.6 µM [falling, partial curve]
COc1ccccc1C(CNC(=O)C1COc2ccccc2O1)N1CCCC1 (configuration not stated) | -13.2 |  | 8.2 µM [falling, partial curve]
Cn1c(CNC(=O)c2ccccc2F)nnc1SCC(=O)Nc1nnc(C2CC2)s1 | -8.97 |  | 

Seven of the compounds above, as tab-separated lines:
SMILES	cell number change [%]	AC50 [1]	AC50 [2]
O=C(Nc1nnc(SCc2ccc(F)cc2)s1)c1ccc2ncsc2c1	45.8	8.2 µM [rising, partial curve]	10.3 µM [rising, partial curve]
CC(C)(C)c1ccc(-c2nnc(SCC(=O)O)n2N)cc1	-6.33	0.517 µM [falling, single point]	0.731 µM [falling, full curve, poor fit]
CCOc1ccc(N(CC(=O)NC2CCCC2)S(=O)(=O)c2c(C)[nH]c(=O)[nH]c2=O)cc1	-26.7	0.0517 µM [falling, full curve, poor fit]	0.259 µM [falling, full curve, poor fit]
COc1ccc(C(=O)Nc2ccc(OCC(F)(F)C(F)F)c(C(F)(F)F)c2)cc1OC	18.8	0.00411 µM [rising, full curve, poor fit]	
CCCC(=O)c1cc(F)c(N2CCN(CCC#N)CC2)cc1C	-17.1		5.8 µM [rising, partial curve]
Cc1cccc2sc(N(CCCN(C)C)C(=O)c3ccco3)nc12	-15.8		0.82 µM [falling, single point]
COc1ccc(S(=O)(=O)NC(C)C(=O)NC2CC2)cc1C (configuration not stated)	-1.16		23.1 µM [rising, single point]

Going on with the list.

SMILES | cell number change [%] | AC50 [1] | AC50 [2]
COc1cccc(OC)c1NC(=O)CN(C)S(=O)(=O)c1ccc2c(c1)OCCO2 | 6.3 |  | 6.51 µM [falling, single point]
CC(=O)Nc1ccc(NC(=O)C(c2ccccc2)c2ccccc2)cc1 | 28.3 |  | 29.1 µM [falling, single point]
Cc1ccc(S(=O)(=O)N2CCCCCC2)cc1C(=O)NCc1ccccn1 | 10 |  | 
Cc1cccc(C)c1OCC(=O)OCC(=O)c1ccc2c(c1)NC(=O)CO2 | 14.3 |  | 
O=C(CSc1nnc(Cc2ccccc2)n1C1CCCCC1)N1CCOCC1 |  | 6.51 µM [falling, single point] | 
Cc1cc(C(=O)CN2C(=O)C(=O)N(Cc3ccco3)C2=O)c(C)n1CCc1ccccc1 | -17.7 |  | 1.46 µM [falling, full curve]
COc1ccnc2c1c(=O)n(Cc1ccccc1Cl)c(=O)n2C | 3.06 |  | 5.17 µM [falling, full curve, poor fit]
COc1ccc(CN2CCC(Oc3ccc(C(=O)N4CCCC4)cc3)CC2)c(F)c1 | 7.03 |  | 
Cc1noc(C)c1CSc1ncnc2sc(C)c(C)c12 | 7.91 | 0.411 µM [rising, partial curve] | 
N=c1c(C(=O)NCCc2ccccc2)cc2c(=O)n3ccccc3nc2n1CC1CCCO1 (configuration not stated) | -4.96 |  | 6.51 µM [rising, single point]
O=C(NCCCNC(=O)c1ccccn1)c1ccc(F)cc1 | 1.32 |  | 
COc1ccc(CNC(=O)c2cc3c(=O)n4ccccc4nc3n(CC3CCCO3)c2=N)cc1 (configuration not stated) | -0.357 |  | 0.184 µM [rising, full curve, poor fit]
COc1cc(NC(=O)Cc2cccc3ccccc23)c(C(=O)O)cc1OC | 30.2 | 11.6 µM [rising, partial curve, poor fit] | 3.66 µM [rising, full curve]
CN(C)c1cc2c(cc1NS(=O)(=O)c1ccccc1)n(C)c(=O)n2C | -4.76 |  | 
O=C(CN1CCCC1)Nc1cc(C(F)(F)F)cc(C(F)(F)F)c1 | 11.1 |  | 0.092 µM [falling, full curve, poor fit]
CN1/C(=C\C(=O)Nc2ccc(Cl)cc2)C(C)(C)c2ccccc21 | -23.6 |  | 29.1 µM [falling, single point]
Cc1cccc(NC(=O)CSCC(=O)Nc2cc(S(=O)(=O)N3CCOCC3)ccc2OC(C)C)c1 | -22.5 |  | 
COCCn1c(C)cc(C(=O)CSc2nc(C)cc(C)c2C#N)c1C | -7.8 |  | 1.46 µM [rising, full curve]
